PubChem BioAssay AID504793 – Drosophila RNAi Screening Center, 2011

- Test: 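Whole-genome screen for parts of the DNA damage checkpoint at G2/M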 (primary screen)
- System: Drosophila S2R+ cells
- Reagent: long dsRNA against Drosophila genes, about 0.25 µg dsRNA per well
- Timing: 4 days of dsRNA, then 4 hours of drug before read-out
- Conditions: doxorubicin 0.5 µM for 4 hours to cause double-strand breaks, in cells also given a low, harmless dose of dsRNA against nbs to sensitise the assay
- Measurement: 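Per-well count of mitotic cells stained for phospho-histone H3 after doxorubicin exposure, used as mitotic index; counts are raw and not normalised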
- Scale: mitotic cells: higher = more cells in mitosis, weaker G2 arrest
- Hit rule: 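a call needs confirmation in secondary tests, with other dsRNAs and a check of mitotic timing without damage, not just a high primary count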
- Calls: active = confirmed in follow-up tests; inactive = not confirmed
The screen tested about 23,000 reagents; shown is a random part of those with a known target gene and a result. Over the whole deposit, 62 (0.27%) are marked active. 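Calls come from follow-up tests whose scores are not deposited, so confirmed genes may have low counts here; counts are not normalised per plate.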 Raw values are not corrected between plates. A plus sign joins genes that one reagent is predicted to hit. Reagent sequences are not shown.

Target gene | PubChem SID | mitotic cells, replicate 1 | activity call
mldr | SID104197892 | 12 | inactive
mldr | SID104206534 | 4 | inactive
CG32075 | SID104190414 | 9 | inactive
CG32075 | SID104208425 | 4 | inactive
Urm1 | SID104202298 | 6 | inactive
Urm1 | SID104208007 | 4 | inactive
Nha2 | SID104194481 | 7 | inactive
Nha2 | SID104195411 | 8 | inactive
Nha2 | SID104195415 | 9 | inactive
Ent2 | SID104181916 | 9 | inactive
Ent2 | SID104207423 | 6 | inactive
Gr10b | SID104199269 | 17 | inactive
Gr10b | SID104207246 | 9 | inactive
CG14505 | SID104186268 | 5 | inactive
Erasp | SID104186903 | 2 | inactive
Toll-6 | SID104191096 | 2 | inactive
Ag5r2 | SID104199120 | 5 | inactive
PolD2 | SID104187939 | 6 | inactive
CG33964 + CG13175 | SID104186092 | 1 | inactive
CG33964 + CG13175 | SID104186093 | 3 | inactive
CG33964 + CG13175 | SID104186976 | 3 | inactive
Nhe1 | SID104180554 | 3 | inactive
nebu | SID104189599 | 2 | inactive
nebu | SID104189600 | 5 | inactive
CG18128 | SID104184096 | 2 | inactive
CR32745 | SID104197234 | 6 | inactive
CR32745 | SID104208233 | 5 | inactive
CG11041 | SID104185817 | 5 | inactive
CG11041 | SID104207813 | 3 | inactive
Psn | SID104191535 | 7 | inactive
Jwa | SID104181840 | 6 | inactive
Jwa | SID104205199 | 8 | inactive
Git | SID104186412 | 4 | inactive
Git | SID104207111 | 5 | inactive
dwg | SID104198558 | 10 | inactive
dwg | SID104207718 | 10 | inactive
CG12375 | SID104181955 | 10 | inactive
CG12375 | SID104205338 | 5 | inactive
Tsen2 | SID104181349 | 8 | inactive
Tsen2 | SID104206371 | 1 | inactive
Lnk | SID104196521 | 4 | inactive
alphaTub67C | SID104191113 | 161 | inactive
alphaTub67C | SID104203708 | 48 | inactive
Osi16 | SID104191927 | 6 | inactive
Osi16 | SID104201108 | 7 | inactive
Prp6 | SID104190516 | 8 | inactive
Prp6 | SID104201438 | 10 | inactive
CG32214 | SID104189405 | 9 | inactive
alc | SID104186854 | 5 | inactive
alc | SID104201202 | 7 | inactive
alc | SID104202673 | 10 | inactive
Tcs6 + PIG-P | SID104193534 | 12 | inactive
Tcs6 + PIG-P | SID104194685 | 11 | inactive
CG3505 | SID104195281 | 8 | inactive
CG31493 | SID104192375 | 5 | inactive
Gss1 + Gss2 | SID104199800 | 8 | inactive
Gss1 + Gss2 | SID104201256 | 7 | inactive
CG8945 | SID104199921 | 9 | inactive

Sorted by “mitotic cells, replicate 1” (low to high): some entries from above.
Target gene | PubChem SID | mitotic cells, replicate 1 | activity call
CG33964 + CG13175 | SID104186092 | 1 | inactive
nebu | SID104189599 | 2 | inactive
CG18128 | SID104184096 | 2 | inactive
CG33964 + CG13175 | SID104186093 | 3 | inactive
CG33964 + CG13175 | SID104186976 | 3 | inactive
Nhe1 | SID104180554 | 3 | inactive
nebu | SID104189600 | 5 | inactive
PolD2 | SID104187939 | 6 | inactive

Next reagents follow:
Target gene | PubChem SID | mitotic cells, replicate 1 | activity call
CG5359 | SID104195572 | 9 | inactive
xmas-1 (retired record) | SID104200178 | 7 | inactive
xmas-1 (retired record) | SID104203232 | 9 | inactive
Fatp3 | SID104184158 | 4 | inactive
Fatp3 | SID104207679 | 3 | inactive
Ufsp2 | SID104190023 | 6 | inactive
Ssdp | SID104196003 | 5 | inactive
Ssdp | SID104206070 | 10 | inactive
eIF2Bgamma | SID104186892 | 8 | inactive
eIF2Bgamma | SID104208309 | 6 | inactive
CG31211 | SID104194745 | 17 | inactive
CG31211 | SID104195136 | 3 | inactive
CG31211 | SID104201210 | 5 | inactive
CG16786 | SID104184073 | 7 | inactive
MCTS1 | SID104198185 | 8 | inactive
CG13599 | SID104194394 | 10 | inactive
Smyd3 | SID104197536 | 13 | inactive
Smyd3 | SID104205267 | 8 | inactive
CG4375 | SID104180445 | 3 | inactive
CG4375 | SID104203723 | 7 | inactive
PIG-G | SID104186615 | 11 | inactive
vis + achi | SID104187069 | 5 | inactive
RASSF8 | SID104195499 | 10 | inactive
RASSF8 | SID104204993 | 9 | inactive
Fak | SID104187218 | 4 | inactive
Fak | SID104205170 | 4 | inactive
CG3397 | SID104195279 | 7 | inactive
Dora | SID104199406 | 4 | inactive
Dora | SID104199573 | 5 | inactive
Dora | SID104199826 | 10 | inactive
Dora | SID104199827 | 1 | inactive
Dora | SID104205599 | 6 | inactive
Dora | SID104206972 | 2 | inactive
TTLL15 | SID104195335 | 5 | inactive
mRpL33 | SID104198111 | 6 | inactive
U3-55K | SID104185774 | 3 | inactive
U3-55K | SID104207634 | 8 | inactive
Dsk | SID104192139 | 5 | inactive
IKKbeta | SID104196506 | 9 | inactive
CG6290 | SID104199771 | 4 | inactive
CG6290 | SID104204029 | 6 | inactive
mah | SID104194437 | 18 | inactive
mah | SID104206844 | 7 | inactive
CG12519 | SID104208354 | 5 | inactive
CG7987 | SID104196149 | 6 | inactive
CG7987 | SID104208546 | 13 | inactive
Blos2 | SID104189939 | 3 | inactive
Blos2 | SID104204186 | 8 | inactive
CG6023 | SID104199762 | 10 | inactive
CG33791 + CG18170 | SID104188315 | 11 | inactive
CG33791 + CG18170 | SID104188393 | 6 | inactive
CG33791 + CG18170 | SID104203296 | 3 | inactive
